Measurements reported in PubChem BioAssay AID1508597 (Cure First, 2020).

- Screen: 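Survival screen with siRNA in ovarian cancer cells derived from patients, with or without rucaparib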 (primary screen)
- Cell system: human ovarian carcinoma lines grown from tumours: OCI-P5x (papillary serous) and OCI-C5x (clear cell)
- Reagent: siRNA pool against human genes, 1.25 pmol siRNA per well
- Timing: 72 h or 96 h, depending on the cell culture
- Conditions: rucaparib 20 µM (about IC30) or vehicle, present until read-out
- Rucaparib or vehicle: Rucaparib
- Cell line: OCI-P5x (serous)
- Measured: 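Luminescent ATP-based viability assay read 72 or 96 h after transfection, depending on culture, given as normalised percent viability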
- Reading the numbers: viability, normalised: higher = more viable cells remaining
- Active means: 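Active when normalised viability falls below 80 percent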
- Meaning of the calls: active = viability under 80%; inactive = viability 80% or more
Shown is an unselected part of the about 2,100 reagents, under one of the conditions tested. 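Calls flag viability under 80% in either arm, not effects specific to rucaparib; the reference for percent is not stated.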 Some reagents were tested in more than one well and are listed for each. Not given: the 100% reference.

gene symbol	PubChem SID	technical replicate	viability, normalised (%)	outcome
FMN2 (formin 2)	SID405526787	1	56.1	active
FMN2 (formin 2)	SID405526787	2	68.7	active
FMN2 (formin 2)	SID405526787	3	60.3	active
TRRAP (transformation/transcription domain associated protein)	SID405526389	1	71.7	active
TRRAP (transformation/transcription domain associated protein)	SID405526389	1	56.5	active
TRRAP (transformation/transcription domain associated protein)	SID405526389	1	54.2	active
TRRAP (transformation/transcription domain associated protein)	SID405526389	2	46.5	active
TRRAP (transformation/transcription domain associated protein)	SID405526389	2	77.3	active
TRRAP (transformation/transcription domain associated protein)	SID405526389	2	62.6	active
TRRAP (transformation/transcription domain associated protein)	SID405526389	3	67.2	active
TRRAP (transformation/transcription domain associated protein)	SID405526389	3	72.6	active
TRRAP (transformation/transcription domain associated protein)	SID405526389	3	39.7	active
BCL3 (BCL3 transcription coactivator)	SID405528025	1	77.6	active
BCL3 (BCL3 transcription coactivator)	SID405528025	2	83.1	inactive
BCL3 (BCL3 transcription coactivator)	SID405528025	3	65.4	active
CTCF (CCCTC-binding factor)	SID405528152	1	70.9	active
CTCF (CCCTC-binding factor)	SID405528152	2	60.8	active
CTCF (CCCTC-binding factor)	SID405528152	3	53.3	active
DNER (delta/notch like EGF repeat containing)	SID405528232	1	80.1	inactive
DNER (delta/notch like EGF repeat containing)	SID405528232	2	76	active
DNER (delta/notch like EGF repeat containing)	SID405528232	3	75.2	active
ZBTB7A (zinc finger and BTB domain containing 7A)	SID405526640	1	67.6	active
ZBTB7A (zinc finger and BTB domain containing 7A)	SID405526640	2	42.3	active
ZBTB7A (zinc finger and BTB domain containing 7A)	SID405526640	3	74.2	active
MAP2K4 (mitogen-activated protein kinase kinase 4)	SID405527483	1	85.6	inactive
MAP2K4 (mitogen-activated protein kinase kinase 4)	SID405527483	2	84.1	inactive
MAP2K4 (mitogen-activated protein kinase kinase 4)	SID405527483	3	77.8	active
SMPDL3B (sphingomyelin phosphodiesterase acid like 3B)	SID405526723	1	85.1	inactive
SMPDL3B (sphingomyelin phosphodiesterase acid like 3B)	SID405526723	2	80.4	inactive
SMPDL3B (sphingomyelin phosphodiesterase acid like 3B)	SID405526723	3	88.9	inactive
CHMP6 (charged multivesicular body protein 6)	SID405528119	1	50.2	active
CHMP6 (charged multivesicular body protein 6)	SID405528119	2	87.8	inactive
CHMP6 (charged multivesicular body protein 6)	SID405528119	3	63.4	active
CHD4 (chromodomain helicase DNA binding protein 4)	SID405528103	1	71	active
CHD4 (chromodomain helicase DNA binding protein 4)	SID405528103	2	57.6	active
CHD4 (chromodomain helicase DNA binding protein 4)	SID405528103	3	46.6	active
PRDM10 (PR/SET domain 10)	SID405527180	1	41	active
PRDM10 (PR/SET domain 10)	SID405527180	2	49.9	active
PRDM10 (PR/SET domain 10)	SID405527180	3	49.6	active
MAP3K15 (mitogen-activated protein kinase kinase kinase 15)	SID405527782	1	90.8	inactive
MAP3K15 (mitogen-activated protein kinase kinase kinase 15)	SID405527782	2	99.6	inactive
MAP3K15 (mitogen-activated protein kinase kinase kinase 15)	SID405527782	3	40.2	active
REV3L (REV3 like, DNA directed polymerase zeta catalytic subunit)	SID405528385	1	55.6	active
REV3L (REV3 like, DNA directed polymerase zeta catalytic subunit)	SID405528385	2	37.3	active
REV3L (REV3 like, DNA directed polymerase zeta catalytic subunit)	SID405528385	3	64.6	active
AANAT (aralkylamine N-acetyltransferase)	SID405527939	1	58.9	active
AANAT (aralkylamine N-acetyltransferase)	SID405527939	2	56.9	active
AANAT (aralkylamine N-acetyltransferase)	SID405527939	3	56.1	active
CASP7 (caspase 7)	SID405528067	1	93	inactive
CASP7 (caspase 7)	SID405528067	2	98.1	inactive
CASP7 (caspase 7)	SID405528067	3	109	inactive
TNKS2 (tankyrase 2)	SID405526571	1	50.8	active
TNKS2 (tankyrase 2)	SID405526571	1	75.7	active
TNKS2 (tankyrase 2)	SID405526571	2	88	inactive
TNKS2 (tankyrase 2)	SID405526571	2	55.1	active
TNKS2 (tankyrase 2)	SID405526571	3	73.5	active
TNKS2 (tankyrase 2)	SID405526571	3	49	active
FOXC2 (forkhead box C2)	SID405526796	1	48.4	active
FOXC2 (forkhead box C2)	SID405526796	2	52.2	active
FOXC2 (forkhead box C2)	SID405526796	3	51.8	active
ELP3 (elongator acetyltransferase complex subunit 3)	SID405526751	1	67.4	active
ELP3 (elongator acetyltransferase complex subunit 3)	SID405526751	2	65.4	active
ELP3 (elongator acetyltransferase complex subunit 3)	SID405526751	3	56	active
FOXA3 (forkhead box A3)	SID405526794	1	52.2	active
FOXA3 (forkhead box A3)	SID405526794	2	65.3	active
FOXA3 (forkhead box A3)	SID405526794	3	53.7	active
RAF1 (Raf-1 proto-oncogene, serine/threonine kinase)	SID405527624	1	101	inactive
RAF1 (Raf-1 proto-oncogene, serine/threonine kinase)	SID405527624	2	89.6	inactive
RAF1 (Raf-1 proto-oncogene, serine/threonine kinase)	SID405527624	3	76	active
SCYL1 (SCY1 like pseudokinase 1)	SID405526442	1	53.7	active
SCYL1 (SCY1 like pseudokinase 1)	SID405526442	1	64	active
SCYL1 (SCY1 like pseudokinase 1)	SID405526442	2	45.2	active
SCYL1 (SCY1 like pseudokinase 1)	SID405526442	2	83.8	inactive
SCYL1 (SCY1 like pseudokinase 1)	SID405526442	3	78	active
SCYL1 (SCY1 like pseudokinase 1)	SID405526442	3	61.7	active

Laid out differently: entries from further up
gene symbol,PubChem SID,technical replicate,"viability, normalised (%)",outcome
"RAF1 (Raf-1 proto-oncogene, serine/threonine kinase)",SID405527624,3,76,active
SCYL1 (SCY1 like pseudokinase 1),SID405526442,1,53.7,active
SCYL1 (SCY1 like pseudokinase 1),SID405526442,1,64,active
SCYL1 (SCY1 like pseudokinase 1),SID405526442,2,45.2,active
SCYL1 (SCY1 like pseudokinase 1),SID405526442,2,83.8,inactive
